No constants are given. Whether binding was seen depends on the method and setting. Some binding calls cover weakened binding; strength is not graded here.
Target: human CD20 on Raji B cells (human) (UniProt P11836)
Assay: flow cytometry staining of Raji B cells

Sequences of proteins named here, by UniProt entry; tags and fusion partners are left off.
UniProt P11836: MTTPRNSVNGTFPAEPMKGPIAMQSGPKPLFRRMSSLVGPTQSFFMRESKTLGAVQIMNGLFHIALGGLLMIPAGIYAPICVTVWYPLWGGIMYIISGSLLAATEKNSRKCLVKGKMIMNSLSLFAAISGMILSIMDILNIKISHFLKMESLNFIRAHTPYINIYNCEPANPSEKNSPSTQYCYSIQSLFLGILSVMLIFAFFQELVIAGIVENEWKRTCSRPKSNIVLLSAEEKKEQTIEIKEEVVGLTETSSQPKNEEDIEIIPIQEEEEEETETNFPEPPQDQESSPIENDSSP

- binding: binds
B1: murine anti-human-CD20 mAb clone 5F1 (antibody, V domains shown)
VH: QVQLRQPGAELVKPGASVKMSCKASGYTFTSYNMHWVKQTPGQGLEWIGAIYPGNGDTSYNQKFKGKATLTADKSSSTAYMQLSSLTSEDSAVYYCARSHYGSNYVDYFDYWGQGTTLTVSS
VL: QIVLSQSPAILSASPGEKVTMTCRASSSLSFMHWYQQKPGSSPKPWIYATSNLASGVPARFSGSGSGTSYSLTISRVEAEDAATYFCHQWSSNPLTFGAGTKLELKR
